Among the data in PubChem BioAssay AID248 (DTP/NCI, 2004) are T/C and survivor count values, retold here.

The list shows only some results of the screen, not a fair sample: it gathers tests that were run many times, whatever their T/C, doses with no T/C, and many T/C values between a quarter and a half above the control. Other doses and runs of a compound stand elsewhere. T/C gives the treated animals as a percentage of the vehicle group. Some doses have a count of surviving animals in place of a T/C: the source files T/C as zero there, which appears to mark a toxic dose or a test without result, not a measured value. Some doses without a T/C left all or most animals alive at the check, yet need not have been tolerated: survival well below the control is almost never listed, so the zero probably covers shortened survival too. Counts of survivors are from the toxicity check (mostly the fifth day) where no day follows; animals may have died later. Schedules are NCI's codes, read here as Q, the interval in days (D) or hours (H), X, the number of doses. Some doses were run more than once; their values stand side by side, smallest first. Some schedule codes hold Z or #, which are not explained here. Some structures stand for samples that the source files as different forms (salt, stereo form or complex); doses refer to the form tested. For survival time, the PubChem record calls one and a half times the control and up active, and a quarter to a half above the control has no call in these data; cut-offs in other NCI protocols can differ. Some T/C values are followed by the survivors on the day toxicity was checked, most often the fifth; where none is given, no animal had died by that day.

This assay deals with L1210 leukemia ip in BDF1 mice, survival T/C. In words: NCI In Vivo Anticancer Drug Screen. Data for tumor model L1210 Leukemia (intraperitoneal) in B6D2F1 (BDF1) mice. The note with it: T/C endpoint: mean survival time, higher T/C = longer survival.

With `Cc1nc(-c2ccc(N=Cc3ccc(N(CCOS(C)(=O)=O)CCOS(C)(=O)=O)cc3)cc2)c(C)s1`, the T/C (dose: 20.0 mg/kg/injection, schedule: Q04DX003 (ip), vehicle: Klucel (hydroxypropylcellulose) (HPC)) is 145 % of control. The survivor count runs as follows: (dose: 200.0 mg/kg/injection, schedule: Q04DX003 (ip), vehicle: Klucel (hydroxypropylcellulose) (HPC)) 3 of 6; (dose: 400.0 mg/kg/injection, schedule: Q04DX003 (ip), vehicle: Klucel (hydroxypropylcellulose) (HPC)) 0 of 6.

On to `Clc1ccc(C#Cc2ccc(Cl)cc2)cc1`, for which the survivor count is listed as 3 of 6 (dose: 25.0 mg/kg/injection, schedule: Q01DX009 (ip), vehicle: saline with Tween-80); 2 of 6 (dose: 100.0 mg/kg/injection, schedule: Q01DX009 (ip), vehicle: saline with Tween-80); 0 of 6 (dose: 200.0 mg/kg/injection, schedule: Q01DX009 (ip), vehicle: saline with Tween-80); 0 of 6 (dose: 400.0 mg/kg/injection, schedule: Q01DX009 (ip), vehicle: saline with Tween-80).

Turning to `COC(=O)C(NC(=O)C(C)NC(=O)c1cnc2ccccc2n1)C(C)C` (stereo not given), the survivor count (dose: 400.0 mg/kg/injection, schedule: Q01DX001 (ip), vehicle: saline) is listed as 1 of 6.

On to `Cc1cnc(N(C)CC(=O)O)nc1-c1ccccc1O`, for which the survivor count (dose: 400.0 mg/kg/injection, schedule: Q04DX002 (ip), vehicle: Klucel (hydroxypropylcellulose) (HPC)) is recorded as 3 of 3.

On to `C[C@]12C(=O)OC(=O)[C@H]1[C@H]1CC[C@@H]2C1`, for which the survivor count (dose: 400.0 mg/kg/injection, schedule: Q01DX009 (ip), vehicle: acetone) is 0 of 6.

`Cc1ccc(Cl)cc1NC(=O)Nc1cc(Cl)c(Cl)cc1C`: the survivor count by setting is: (dose: 25.0 mg/kg/injection, schedule: Q04DX003 (ip), vehicle: saline with Tween-80) 6 of 6; (dose: 100.0 mg/kg/injection, schedule: Q04DX003 (ip), vehicle: saline with Tween-80) 5 of 6 and 6 of 6; (dose: 200.0 mg/kg/injection, schedule: Q04DX003 (ip), vehicle: saline with Tween-80) 6 of 6.

For `Cc1ccc(C)c(CCl)c1`, for the setting “dose: 300.0 mg/kg/injection, schedule: Q01DX001 (ip), vehicle: saline”, the survivor count is given as 3 of 6.

`COc1ccc(OC)c2[nH]c(=O)c(CCC(=O)O)nc12`: the survivor count (dose: 400.0 mg/kg/injection, schedule: Q04DX003 (ip), vehicle: other) is given as 6 of 6.

Regarding `O=C(NCCCCCCCCCCCCNC(=O)Nc1ccc(C2=NCC(O)CN2)cc1)Nc1ccc(C2=NCC(O)CN2)cc1` (stereo not given), the T/C (dose: 125.0 mg/kg/injection, schedule: Q01DX Z (ip), vehicle: carboxymethylcellulose (CMC)) is 133 % of control. The survivor count (dose: 500.0 mg/kg/injection, schedule: Q01DX Z (ip), vehicle: carboxymethylcellulose (CMC)) is on record as 0 of 6.

For `S=P(NCCCCCNP(=S)(N1CC1)N1CC1)(N1CC1)N1CC1`, the survivor count was 5 of 6 (dose: 200.0 mg/kg/injection, schedule: Q01DX001 (ip), vehicle: carboxymethylcellulose (CMC)) and 4 of 6 (dose: 400.0 mg/kg/injection, schedule: Q01DX001 (ip), vehicle: carboxymethylcellulose (CMC)).

For `CCN(CC)CCN1C(=O)c2cccc3cccc(c23)C1=O`, the T/C by setting is: (dose: 52.0 mg/kg/injection, schedule: Q01DX009 (ip), vehicle: saline) 141 % of control; (dose: 52.0 mg/kg/injection, schedule: Q03HX024 (ip), vehicle: saline) 136 % of control; (dose: 143.0 mg/kg/injection, schedule: Q01DX009 (ip), vehicle: saline) 128 % of control. Moreover, the survivor count runs as follows: (dose: 143.0 mg/kg/injection, schedule: Q03HX024 (ip), vehicle: saline) 10 of 10; (dose: 215.0 mg/kg/injection, schedule: Q01DX009 (ip), vehicle: saline) 5 of 10; (dose: 215.0 mg/kg/injection, schedule: Q03HX024 (ip), vehicle: saline) 0 of 10; (dose: 234.0 mg/kg/injection, schedule: Q01DX001 (ip), vehicle: saline) 4 of 10; (dose: 234.0 mg/kg/injection, schedule: Q04DX003 (ip), vehicle: saline) 4 of 10; (dose: 322.0 mg/kg/injection, schedule: Q01DX009 (ip), vehicle: saline) 0 of 10. The survivor count (dose: 322.0 mg/kg/injection, schedule: Q03HX024 (ip), vehicle: saline) was 0 of 10; the survivor count (dose: 348.0 mg/kg/injection, schedule: Q01DX001 (ip), vehicle: saline) is 1 of 10; the survivor count (dose: 348.0 mg/kg/injection, schedule: Q04DX003 (ip), vehicle: saline) is on record as 3 of 10; the survivor count (dose: 520.0 mg/kg/injection, schedule: Q01DX001 (ip), vehicle: saline) was 0 of 10 and 1 of 10; the survivor count (dose: 520.0 mg/kg/injection, schedule: Q04DX003 (ip), vehicle: saline) was 0 of 10 and 1 of 10; the survivor count (dose: 960.0 mg/kg/injection, schedule: Q01DX001 (ip), vehicle: saline) is on record as 0 of 10. Moreover, the survivor count runs as follows: (dose: 960.0 mg/kg/injection, schedule: Q04DX003 (ip), vehicle: saline) 0 of 10; (dose: 1430.0 mg/kg/injection, schedule: Q01DX001 (ip), vehicle: saline) 0 of 10; (dose: 1430.0 mg/kg/injection, schedule: Q04DX003 (ip), vehicle: saline) 0 of 10; (dose: 2150.0 mg/kg/injection, schedule: Q01DX001 (ip), vehicle: saline) 0 of 10; (dose: 2150.0 mg/kg/injection, schedule: Q04DX003 (ip), vehicle: saline) 0 of 10; (dose: 3220.0 mg/kg/injection, schedule: Q01DX001 (ip), vehicle: saline) 0 of 10. Besides, the survivor count (dose: 3220.0 mg/kg/injection, schedule: Q04DX003 (ip), vehicle: saline) is listed as 0 of 10.

As for `O=P1(c2ccccc2)OCCO1`, the survivor count is reported as 6 of 6 (dose: 200.0 mg/kg/injection, schedule: Q01DX009 (ip), vehicle: carboxymethylcellulose (CMC)) and 2 of 6 (dose: 400.0 mg/kg/injection, schedule: Q01DX009 (ip), vehicle: carboxymethylcellulose (CMC)).

Turning to `O=C(Nc1ccc(C2=NCCN2)cc1)c1cccc(C(=O)Nc2ccc(C3=NCCN3)cc2)c1`, the T/C is 147 % of control (dose: 3.75 mg/kg/injection, schedule: Q01DX Z (ip), vehicle: methylcellulose (MC)); 128 % of control (dose: 3.75 mg/kg/injection, schedule: Q01DX Z (ip), vehicle: saline); 144 % of control (dose: 7.5 mg/kg/injection, schedule: Q01DX009 (ip), vehicle: saline); 144 % of control (dose: 7.5 mg/kg/injection, schedule: Q01DX Z (ip), vehicle: saline); 136 % of control (dose: 8.0 mg/kg/injection, schedule: Q01DX010 (ip), vehicle: saline); 126 % of control (dose: 14.0 mg/kg/injection, schedule: Q07DX Z (ip), vehicle: methylcellulose (MC)). The T/C is 134 % of control (dose: 16.0 mg/kg/injection, schedule: Q01DX Z (sc), vehicle: methylcellulose (MC)); 137 % of control (dose: 64.0 mg/kg/injection, schedule: Q01DX Z (ip), vehicle: methylcellulose (MC)); 130 % of control [4 of 6 alive] (dose: 120.0 mg/kg/injection, schedule: Q01DX009 (ip), vehicle: saline); 135 % of control [5 of 6 alive] (dose: 120.0 mg/kg/injection, schedule: Q01DX Z (ip), vehicle: carboxymethylcellulose (CMC)). In addition, the survivor count was 1 of 7 and 3 of 7 (dose: 20.0 mg/kg/injection, schedule: Q01DX Z (iv), vehicle: other); 3 of 7 (dose: 224.0 mg/kg/injection, schedule: Q07DX Z (ip), vehicle: methylcellulose (MC)); 1 of 6 (dose: 240.0 mg/kg/injection, schedule: Q01DX Z (ip), vehicle: saline); 1 of 7 (dose: 448.0 mg/kg/injection, schedule: Q07DX Z (ip), vehicle: methylcellulose (MC)); 0 of 6 (dose: 480.0 mg/kg/injection, schedule: Q01DX Z (ip), vehicle: saline); 4 of 6 (dose: 960.0 mg/kg/injection, schedule: Q01DX Z (oral), vehicle: methylcellulose (MC)).

In the case of `CCC(C)SC1=NC(N)=NC2=NC=NC21` (stereo not given), under “dose: 200.0 mg/kg/injection, schedule: Q04DX003 (ip), vehicle: carboxymethylcellulose (CMC)”, the T/C was 140 % of control.
